Data set [1] has as its system T1, 6His-SUMO-RegA (Acidithiobacillus ferrooxidans ATCC 23270T).
T1 sequence (looked up): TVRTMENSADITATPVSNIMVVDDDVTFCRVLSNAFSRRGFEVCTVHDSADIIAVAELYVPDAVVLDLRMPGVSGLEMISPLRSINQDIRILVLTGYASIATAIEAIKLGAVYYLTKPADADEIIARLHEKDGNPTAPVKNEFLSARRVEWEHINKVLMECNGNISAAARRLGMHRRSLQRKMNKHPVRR
The data set can be described thus: DLS. The conditions noted are these: Dv50 9.22 nm vs 7.58 nm free, tetramer; recombinant protein; residues 1-190; protein details: N-terminal 6His-SUMO; label: 5' Cy5 reverse primer (EMSA); probe letters rebuilt from the primers and the genome. (Mobility shift assays separate free from complexed probe on a gel.)

Data set [2] has the same test system. Description: EMSA. The following applies: EMSA: 40 mM Tris-HCl pH 8, 100 mM KCl, 0.5 mM DTT, 0.05% NP40, 2 mM spermidine, 0.2 mM EDTA, 8% glycerol, 15 ng/ul herring sperm DNA, 30 min room temperature; recombinant protein; residues 1-190; protein details: N-terminal 6His-SUMO; label: 5' Cy5 reverse primer (EMSA); probe letters rebuilt from the primers and the genome.

Where a protein sequence is shown, tags need not be part of it.

For the sequence “CGTTAAGGCGACGCAGTCAGCGCGTACGAATGTCTTGGCGGCGTTTTGGACCGATAGTGAACCGATACCTTCCTCCCGTAAAACTGGCTCATCCCTACCCATCGCAAAGGTTTCGCGTCATGACCTGAGGTAGGAGCCGTATGCGGTAATTCCGCTCGTACGGATCTGTGCGGGGGGCGGTGGGTAACTACTGCCTCTACCGCGACCCATCACGGTGACCTTGAGATGTCTCTTCCAACACCTTTGTGTTGAGGACGCATGGCGTGGAGATATCTTGGCATGTCAGTTTTTGGGACATTTTAGTGATCGCGGCATATAATTAAAAGGCCAGATTAACATGTTTAAATAACGTTAGCACATAATTCTTTTCTTATGTTCTTTATTTAAGTTATTGTGTTTTAGTGGATCCGTATCGTGATG (double strand) [rus 420 bp]”, the binding result in data set [1] and in data set [2] was “binds” each time.

For the origin of these results see PMC5506826.
